According to PubChem BioAssay AID2685 (National Center for Advancing Translational Sciences (NCATS), 2010):
Some of the results follow. Shown are side measurements of this screen, not its main read-out; they come without a call. Compounds called inactive in the main read-out are mostly missing here. Potencies come from curve fits of mixed quality, noted in brackets.

Assay: qHTS Assay for Lipid Storage Modulators in Drosophila S3 Cells;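 for cell number change: cells counted by Cell Tracker Red CMTPX staining in the red channel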
Conditions: BODIPY lipid droplet fluorescence, 18-24 h; for cell number change: measured here: cell count max response, cells fed with added oleic acid
Outline: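 Laser-scanning cytometry quantifies lipid droplet accumulation (500–530 nm total intensity; droplet/cell object ratio) in oleic acid-fed (400 uM added) Drosophila S3 cells treated with a concentration series. 20 uM Triacsin C defined 100% inhibition.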

[1] = measured here: lipid fluorescence (Fed channel) AC50, cells fed with added oleic acid
[2] = measured here: cell number channel AC50, cells fed with added oleic acid

Compound | cell number change [%] | AC50 [1] | AC50 [2]
Cc1ccc(NC(=O)CSc2nc(=O)n(CCN(C)C)c3c2CCCC3)c(C)c1 | -3.4 | – | –
Cn1c(=O)cc(OCC(=O)NCCCN2CCN(c3cccc(Cl)c3)CC2)c2ccccc21 | 2.99 | 2.91 µM [rising, full curve] | –
CCN(Cc1cnn(C)c1)C(=O)C1CCC(=O)N(CCc2ccc(OC)cc2)C1 (configuration not stated) | -10.2 | – | –
COc1cc(F)ccc1S(=O)(=O)NCc1cccnc1 | 11.4 | 0.92 µM [rising, full curve, poor fit] | –
O=C(CN1CCN(S(=O)(=O)c2ccc(F)cc2)CC1)NCc1cccs1 | -15.7 | – | –
COC(=O)c1ccc(S(=O)(=O)NCc2ccccn2)n1C | -14.3 | 0.116 µM [rising, full curve, poor fit] | –
Cc1cc([N+](=O)[O-])nn1CC(=O)NCc1ccc(Cl)cc1 | 34.6 | – | 3.66 µM [rising, full curve]
O=C(NCC(c1ccco1)N1CCCC1)c1ccc(S(=O)(=O)Nc2ccccc2Cl)cc1 (configuration not stated) | -21.6 | 1.84 µM [falling, partial curve] | 0.013 µM [falling, full curve, poor fit]
CCN1C(=O)/C(=C/c2ccc(C)s2)SC1=Nc1ccc(OC)cc1 | 40.4 | 29.1 µM [rising, single point] | 9.2 µM [rising, partial curve, poor fit]
CC(=O)Nc1cc2c(cc1C(=O)C(C)C)OCCO2 | – | 29.1 µM [rising, single point] | 0.116 µM [falling, full curve, poor fit]
CCn1c(CC(=O)Nc2ccccc2F)nnc1SCC(=O)N1CCN(c2ccccc2)CC1 | 0.688 | 0.058 µM [falling, full curve, poor fit] | 6.51 µM [falling, single point]
O=C(NC(=S)NNC(=O)c1ccccc1O)c1ccco1 | – | 8.2 µM [falling, partial curve] | –
CCN(CC)C(=O)CSc1nnc(-c2cc3ccccc3cc2O)n1CC | -36.2 | 29.1 µM [falling, single point] | –
CSc1nc(-c2ccccc2)nc(N)c1C(C)=O | -28.1 | 6.51 µM [falling, single point] | –
CC(C)C(NC(=O)c1ccco1)C(=O)OCC(=O)Nc1ccc(C(N)=O)cc1 (configuration not stated) | – | 10.3 µM [rising, partial curve] | –
O=C(/C=C/c1ccc(Cl)c([N+](=O)[O-])c1)Nc1ccc(N2CCCC2)c(Cl)c1 | -52.7 | 4.11 µM [falling, full curve] | 1.84 µM [falling, full curve, poor fit]
O=C(N/N=C/c1cccnc1)c1cccc(NC(=O)c2cccc(Br)c2)c1 | 71.7 | – | 16.4 µM [rising, single point]
COc1ccccc1Nc1nn2c(=O)c3ccc(C(=O)N4CCCCC4)cc3nc2s1 | 8.02 | 6.51 µM [falling, single point] | –
CC1CCCC(C)N1C(=O)c1cc(-c2ccco2)on1 (configuration not stated) | -3.33 | 0.00461 µM [rising, full curve] | –

Compound | cell number change [%] | AC50 [1] | AC50 [2]
COc1cccc(N/C(SCc2ccccc2Cl)=C(/C#N)C(=O)NCc2cccs2)c1 | 9.39 | 1.16 µM [falling, single point] | –
O=C(O)/C=C/C(=O)N1N=C(c2ccco2)CC1c1ccco1 (configuration not stated) | -28.5 | 14.6 µM [falling, single point] | 0.00651 µM [falling, full curve, poor fit]
COc1ccc(Cl)cc1NC(=O)CSc1nnc(Cn2c(=O)sc3ccccc32)n1C | -58.7 | 14.6 µM [falling, partial curve] | 23.1 µM [falling, partial curve]
Cc1cccc(N/C=C(\[N+](=O)[O-])S(=O)(=O)c2ccccc2)c1C | -14 | 32.6 µM [falling, single point] | –
CSC1=NCCN1C(=O)c1ccc(C)cc1 | -0.615 | – | –
O=C(c1cncc(Br)c1)N1CCCc2ccccc21 | 12.4 | 8.2 µM [rising, partial curve] | –
CC(=O)Nc1cccc(Oc2ncnc3scc(-c4ccc(C)cc4)c23)c1 | -23 | 9.2 µM [falling, partial curve, poor fit] | –
CCc1ccccc1NC(=O)Nc1cccc(F)c1 | -17.2 | 5.17 µM [falling, partial curve] | –
Cc1cccc(Nc2nc(N)c(C#N)c(CC#N)c2C#N)c1 | 25.4 | 29.1 µM [rising, single point] | –
O=C(NCC(=O)N(Cc1cccs1)C(C(=O)NC1CCCC1)c1ccco1)c1cccs1 (configuration not stated) | – | – | 6.51 µM [rising, single point]
Cc1cc(C)n(CC(O)CN2c3ccccc3Sc3ccccc32)n1 (configuration not stated) | -24.4 | 1.84 µM [falling, single point] | –
Cc1cc(C)c(S(=O)(=O)N(C)Cc2cnn(C)c2)c(C)c1 | 13.6 | 6.51 µM [falling, single point] | –
O=C(NCc1ccco1)C1CCN(c2nnc(-n3cccc3)s2)CC1 | 46.8 | – | 23.1 µM [rising, single point]
O=C(NCCN1CCCC1)c1ccc(Cn2c(=S)[nH]c3ccc(Br)cc3c2=O)cc1 | -0.814 | 0.58 µM [falling, partial curve, poor fit] | 0.651 µM [falling, single point]
N=C1/C(=C/c2ccco2)C(=O)N=C2SC(CC(=O)N3CCCC3)=NN12 | – | 2.06 µM [falling, partial curve, poor fit] | –
Cc1cnc(C(=O)Nc2ccccc2-n2cccc2)cn1 | – | 0.092 µM [falling, full curve, poor fit] | –
Cc1ccc(OCc2cc(C(=O)N3CC4C[C@@H]5CC3C[C@H](C4)C5)no2)cc1C | 43.6 | – | 29.1 µM [rising, single point]
COc1cc(CO)ccc1OCc1nnnn1-c1ccc(C)cc1 | -11.2 | 5.17 µM [falling, full curve] | –

Fetched one by one from the list above (two):
Compound | cell number change [%] | AC50 [1] | AC50 [2]
Cc1cccc(Nc2nc(N)c(C#N)c(CC#N)c2C#N)c1 | 25.4 | 29.1 µM [rising, single point] | –
O=C(NCC(c1ccco1)N1CCCC1)c1ccc(S(=O)(=O)Nc2ccccc2Cl)cc1 (configuration not stated) | -21.6 | 1.84 µM [falling, partial curve] | 0.013 µM [falling, full curve, poor fit]
